Measured values published in paper PMC11476017, “A Lincomycin-Specific Antibody Was Developed Using Hapten Prediction, and an Immunoassay Was Established to Detect Lincomycin in Pork and Milk” (Foods, 2024).

Test system: T1, monoclonal antibody 1B11 (LIN/1B11)
T1 construct: whole monoclonal antibody, IgG1
Assay: indirect competitive ELISA, cross-reactivity relative to LIN

| Structure (SMILES) | % cross-reactivity |
| --- | --- |
| CCC[C@@H]1C[C@@H](C(=O)N[C@@H]([C@H]2O[C@H](SC)[C@H](O)[C@@H](O)[C@H]2O)[C@H](C)Cl)N(C)C1 [CLIN, Clindamycin] | 2.8 % cross-reactivity |
| CC[C@@H]1CCN[C@H](C(=O)N[C@@H]([C@H]2O[C@H](SC)[C@H](O)[C@@H](O)[C@H]2O)[C@H](C)Cl)C1 [PIR, Pirimicin] | 2.4 % cross-reactivity |
